{"source": "patent US4156729A", "about": "“1,2-Benzisothiazolin-3-ones” (Bayer Aktiengesellschaft, priority 1976, dated 1979)", "key": {"Human PRP [1]": {"test_system": "Human PRP", "test": "In vitro collagen-induced thrombocyte aggregation inhibition, human PRP", "format": "cell-based", "conditions": "10 min preincubation, 37° C."}, "Human PRP [2]": {"test_system": "Human PRP", "test": "In vitro ADP-induced thrombocyte aggregation inhibition, human PRP", "format": "cell-based", "conditions": "10 min preincubation, 37° C.", "procedure": "In vitro: Blood from healthy human test subjects of both sexes, and blood of rabbits and rats is used. One part of 3.8% strength aqueous sodium citrate solution, as an anticoagulant, is mixed with nine parts of blood. Centrifugation of this blood gives a platelet-rich citrate plasma (PRP); see generally Jurgens/Beller, Klinische Methoden der Blutgerinnungsanalyse, Thieme Verlag, Stuttgart (1959).\nA mixture of 0.8 ml of PRP and 0.1 ml of the active compound solution is preincubated for 10 minutes at 37° C. Thrombocyte aggregation is then determined by the turbidimetric method of Born [J. Physiol. (London) 162, 67 (1962)] in an aggregometer at 37° C. [see generally Therapeutische Berichte, 47, 80-86 (1975)]. An aggregation-initiating agent (0.1 ml) such as collagen or ADP is thus added to the preincubated sample. The change in the optical density in the sample of PRP is recorded over a period of 6 minutes and the percentage inhibition is then calculated from the integrated area or the deflection.\nTable I presents ranges of concentration at which the thrombocyte aggregation is inhibited by a value of 50% utilizing 2-(2-diethylaminoethyl)-4,6-dimethyl-1,2-benzisothiazolin-3-one (as the 1,5-naphthalenedisulfonate hemisalt) [compound A]."}}, "note": "For at least one compound, name, drawing or mass did not settle the structure."}
{"smiles": "CCN(CC)CCn1sc2cc(C)cc(C)c2c1=O", "note": "[Compound A, 2-(2-diethylaminoethyl)-4,6-dimethyl-1,2-benzisothiazolin-3-one]", "values": [{"measurement": "IC50", "setting": "Human PRP [1]", "value": "1 × 10^-5 -3 × 10^-6"}, {"measurement": "IC50", "setting": "Human PRP [2]", "value": "3 × 10^-5 -1 × 10^-5"}]}
